From patent US20140248218A1, “ROS-SENSITIVE FLUORESCENT PROBES” (The Regents of the University of California, priority 2013, published 2014) come the findings set out here.

The data set in a line: Fluorescence response of the probes to H2O2 (luminescence spectroscopy, fluorescence turn-on). The format is physicochemical. Conditions: for fluorescence of the compound in the absence of H2O2 / maximum λem after addition of H2O2: 50 mM HEPES pH 7.5. Here is the method: Fluorescence emission spectra were recorded with a Perkin-Elmer LS-55 fluorescence spectrometer. To a 2.0 mL solution of probe of varying concentrations in HEPES buffer (50 mM, pH 7.5) was added H2O2 in HEPES to monitor fluorescence turn-on. Spectra were monitored over time at room temperature with quartz cuvettes.
To quantitate the fluorescence turn-on, a sample of each probe (1 μM in 50 mM HEPES pH 7.5) was prepared. An excess of H2O2 (300 eq, 300 μM) was added to the latent fluorophore and spectra were recorded until no increase in fluorescence intensity was observed, signifying a complete reaction. The collected initial and final emission spectrum were integrated, and the ratio reports the fluorescence turn on.
FBBBE and CBBE were evaluated for H2O2 sensitivity under simulated physiological conditions (50 mM HEPES, pH 7.5). For FBBBE, the installation of the benzyl protecting group forces the compound to remain in the closed lactone form, rendering FBBBE (and FBn) nonfluorescent. […] Along with the observed fluorescence increase, the absorption spectrum of FBBBE considerably changed upon H2O2 addition with a large increase in the visible absorption band (λmax=494 nm). The final spectrum recorded was identical to that of an authentic sample of fluorescein, providing additional proof that the probe was undergoing complete deprotection to the desired product (FIG. 7). […] FBBBE was incubated with different concentrations of H2O2 for 15 min and then the emission spectrum was collected.
The coumarin-based compound, CBBE, was nonfluorescent in the absence of H2O2. […] (FIG. 12).
Additional studies were performed to quantify the fluorescence turn-on for each probe to directly compare the sensitivity to H2O2. […] To determine the sensitivity of these probes in a more quantitative fashion, pseudo first-order kinetic measurements were performed using UV-Vis absorption spectroscopy. The observed rate constants for FBBBE and CBBE activation by H2O2 were kobs=3.1×10-5 s-1 and kobs=4.6×10-3 s-1, respectively. It was determined that the deprotection of CBBE was much faster than FBBBE. This may be likely due to the fact that FBBBE contains two boronic ester triggers that are required for complete release of the fluorophore. Recently, it has been shown that boronic ester based probes can be sensitive to other biologically relevant ROS, such as hypochlorite (—OCl) and peroxynitrite (—ONOO).^[26]

In the case of `CC1(C)OB(c2ccc(COc3ccc4ccc(=O)oc4c3)cc2)OC1(C)C` [CBBE, 7-((4-(4,4,5,5-tetramethyl-1,3,2-dioxaborolan-2-yl)benzyl)oxy)-2H-chromen-2-one], the “fluorescence of the compound in the absence of H2O2” value (shortened to “fluorescence of the compound”) was “nonfluorescent” and the “maximum λem after addition of H2O2” value was found to be 453 nm.

`CC1(C)OB(c2ccc(COc3ccc4c(c3)Oc3cc(OCc5ccc(B6OC(C)(C)C(C)(C)O6)cc5)ccc3C43OC(=O)c4ccccc43)cc2)OC1(C)C` [FBBBE, 3′,6′-bis((4-(4,4,5,5-tetramethyl-1,3,2-dioxaborolan-2-yl)benzyl)oxy)-3H-spiro[isobenzofuran-1,9′-xanthen]-3-one]: the “fluorescence of the compound” value is “nonfluorescent” and the “maximum λem after addition of H2O2” value was 521 nm. The “visible absorption band λmax after H2O2 addition” value (50 mM HEPES pH 7.5, UV-Vis) came to 494 nm. Consider `CC1(C)OB(c2ccc(COc3ccc4c(-c5ccccc5C(=O)O)c5ccc(=O)cc-5oc4c3)cc2)OC1(C)C` [FBBE, 2-(3-oxo-6-((4-(4,4,5,5-tetramethyl-1,3,2-dioxaborolan-2-yl)benzyl)oxy)-3H-xanthen-9-yl)benzoic acid], for which the “fluorescence of the compound” value is “highly fluorescent”.

Consider `O=C1OC2(c3ccc(OCc4ccccc4)cc3Oc3cc(OCc4ccccc4)ccc32)c2ccccc21` [FBn, 3′,6′-bis(benzyloxy)-3H-spiro[isobenzofuran-1,9′-xanthen]-3-one, reference compound], for which the “fluorescence of the compound” value is on record as “nonfluorescent”.
